Experimental data taken from article doi:10.1101/2021.03.03.433707.

Biological target: T1, MukB long hinge (LH, 568-863) (E. coli) (UniProt P22523)
T1 sequence: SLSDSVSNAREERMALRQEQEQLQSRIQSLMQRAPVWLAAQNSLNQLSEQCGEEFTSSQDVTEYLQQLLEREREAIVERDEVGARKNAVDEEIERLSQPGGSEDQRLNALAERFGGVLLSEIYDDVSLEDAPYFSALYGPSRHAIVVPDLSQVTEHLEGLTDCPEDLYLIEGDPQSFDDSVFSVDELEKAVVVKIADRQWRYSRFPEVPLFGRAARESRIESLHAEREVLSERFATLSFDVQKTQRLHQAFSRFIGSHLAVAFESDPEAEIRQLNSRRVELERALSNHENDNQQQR
Experiment: SEC

“MBP-ParC^CTD (ParC C-terminal domain with N-terminal MBP fusion) (E. coli) (domain or fragment)” was tested, and the binding was “binds”.

Results are given in words; binding and its absence hold for the method and conditions named. A result given as binding can be weak or reduced; the word gives no strength.
